# Test results reported in the supplement of paper PMC10727501.
# Some of the results follow. This data set is noisy: repeats of one test often differ as much as different tests do.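 Free-swimming zebrafish larvae were assessed for O-bend response probability to dark flashes (naive: first five; training: remaining flashes across four 60-flash blocks; test: later 60-flash block) and for OMR turning toward alternating leftward/rightward LED motion. Six treated larvae were compared against sixty 0.1% DMSO controls; hits required |SSMD|≥2.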
# Tested on: Danio rerio larvae (5 dpf, TLF)
# Assay: Prob-Test (SSMD vs DMSO vehicle); higher = higher than vehicle (e.g. higher dark-flash O-bend response probability, or better optomotor performance)
# Details: 10 µM; pre-incubation: 30-90 min
row,Structure (SMILES),Prob-Test
1,CNC[C@H](O)c1cccc(O)c1.Cl [Phenylephrine HCl],-0.0469
2,Nc1nc(NCCNc2ncc(-n3ccnc3)c(-c3ccc(Cl)cc3Cl)n2)ccc1[N+](=O)[O-],-0.452
3,Cc1cc(Nc2cc(N3CCN(C)CC3)nc(/C=C/c3ccccc3)n2)n[nH]1,-0.0569
4,COc1ccccc1Oc1c(NS(=O)(=O)c2ccc(C(C)(C)C)cc2)nc(-c2ncccn2)nc1OCCO.O [Bosentan Hydrate],0.23
5,Cc1cc(C)c(CNC(=O)c2cc(-c3ccc(CN4CCOCC4)cc3)cc3c2cnn3C2CCCC2)c(=O)[nH]1,0.305
6,NC(=S)NN=Cc1ncccc1N [Triapine],0.0817
7,NC(=O)c1noc([C@H](CCCC2CCCCC2)CC(=O)NO)n1,0.23
8,CCC(NC(C)C)C(O)c1ccc(O)c(O)c1.CS(=O)(=O)O (centres undefined) [Isoetharine Mesylate],-0.448
9,Cc1[nH]c(/C=C2\C(=O)Nc3ccc(S(=O)(=O)Cc4c(Cl)cccc4Cl)cc32)c(C)c1C(=O)N1CCC[C@@H]1CN1CCCC1,0.476
10,CN(C)c1ccccc1CN1CCCN(Cc2ccccc2N(C)C)C1c1ccncc1,0.728
11,NCCCC[C@H](N[C@@H](CCc1ccccc1)C(=O)O)C(=O)N1CCC[C@H]1C(=O)O [Lisinopril (Zestril)],-0.579
12,COc1ccccc1N1CCN(CC(O)COc2cccc3ccccc23)CC1 (centres undefined) [Naftopidil],-0.753
13,CC(=O)OCC(=O)[C@]12N=C(C)O[C@@H]1C[C@H]1[C@@H]3CCC4=CC(=O)C=C[C@]4(C)[C@@H]3[C@H](O)C[C@@]12C [Deflazacort],0.164
14,NC1=N[C@@]2(c3cc(NC(=O)c4ccc(F)cn4)ccc3F)COC[C@@H]2CS1,0.194

# Tested on: Danio rerio larvae (5 dpf, TLF)
# Assay: Prob-Naive (SSMD vs DMSO vehicle); higher = higher than vehicle (e.g. higher dark-flash O-bend response probability, or better optomotor performance)
# Details: 10 µM; pre-incubation: 30-90 min
row,Structure (SMILES),Prob-Naive
1,CO[C@H]1/C=C/O[C@]2(C)Oc3c(C)c(O)c4c(O)c(c5c(nc6cc(C)ccn65)c4c3C2=O)NC(=O)/C(C)=C\C=C\[C@@H](C)[C@H](O)[C@H](C)[C@@H](O)[C@@H](C)[C@H](OC(C)=O)[C@@H]1C [Rifaximin],0.493
2,CCOC(=O)n1ccn(C)c1=S [Carbimazole],0.585
3,CC(C)(C)c1cc(NC(=O)Nc2ccc(-c3cn4c(n3)sc3cc(OCCN5CCOCC5)ccc34)cc2)no1 [Quizartinib (AC220)],0.173
4,c1ccc2c(CCNc3ccc(Nc4ccncc4)cc3)c[nH]c2c1,0.0042
5,CC[C@H](/C=C/[C@@H](C)[C@@H]1CC[C@H]2[C@@H]3CC=C4C[C@@H](O)CC[C@]4(C)[C@@H]3CC[C@@]21C)C(C)C [Stigmasterol],-0.365
6,CCCC(C(=O)OCCN(CC)CC)(c1ccccc1)c1ccccc1.Cl [Proadifen HCl],0.61
7,Cn1cnc2c(F)c(Nc3ccc(Br)cc3Cl)c(C(=O)NOCCO)cc21 [Selumetinib (AZD6244)],0.125
8,CNC(=O)c1c(F)cccc1Nc1nc(Nc2cc3c(cc2OC)CCN3C(=O)CN(C)C)nc2[nH]ccc12,0.515
9,C[C@@H]1O[C@H](O[C@H]2[C@H](O)[C@@H](O)[C@@H](O[C@H]3[C@H](O)[C@@H](O)[C@H](O)O[C@H]3CO)O[C@H]2CO)[C@H](O)[C@@H](O)[C@@H]1N[C@H]1C=C(CO)[C@@H](O)[C@H](O)[C@@H]1O [Acarbose],-0.49
10,COc1cc2ncnc(Nc3ccc(Cl)cc3F)c2cc1OC,-0.304
11,O=c1c2ccccc2oc2ccccc12 [Xanthone],-3.13
12,C#C[C@@]1(OC(C)=O)CC[C@H]2[C@@H]3CCC4=C[C@@H](OC(C)=O)CC[C@@H]4[C@@H]3CC[C@@]21C [Ethynodiol diacetate],-0.861
13,CS(=O)(=O)c1ccc([C@@H](O)[C@@H](CF)NC(=O)C(Cl)Cl)cc1 [Florfenicol],0.105
14,NC1CCN(c2c(F)cc3c(=O)c(C(=O)O)cn(C4CC4)c3c2Cl)C1 (centres undefined),-0.0927
15,C=C1c2c(Cl)ccc(O)c2C(O)=C2C(=O)[C@]3(O)C(O)=C(C(N)=O)C(=O)[C@@H](N(C)C)[C@@H]3[C@@H](O)[C@H]12.O=C(O)c1cc(S(=O)(=O)O)ccc1O [Meclocycline Sulfosalicylate],0.0876
16,C/C(O)=C(\C#N)C(=O)Nc1ccc(C(F)(F)F)cc1 [Teriflunomide],-0.269
17,CC(C)=CCC[C@](C)(O[C@@H]1O[C@H](CO[C@@H]2OC[C@@H](O)[C@H](O)[C@@H]2O)[C@@H](O)[C@H](O)[C@@H]1O)[C@@H]1CC[C@]2(C)[C@@H]1[C@H](O)C[C@H]1[C@@]3(C)CC[C@H](O[C@@H]4O[C@H](CO)[C@@H](O)[C@H](O)[C@@H]4O)C(C)(C)[C@@H]3CC[C@]12C [Gynostemma Extract],0.375
18,COc1cc2c(NC3CCN(CC4CCCCC4)CC3)nc(N3CCCN(C(C)C)CC3)nc2cc1OCCCN1CCCCC1,-0.0813
19,C[C@@H]1C[C@H]2[C@@H]3CCC4=CC(=O)C=C[C@]4(C)[C@]3(Cl)[C@H](O)C[C@]2(C)[C@]1(OC(=O)c1ccco1)C(=O)CCl [Mometasone furoate],0.0956
20,CC(C)(C)C(=O)C(Oc1ccc(Cl)cc1)n1ccnc1 (centres undefined) [Climbazole],0.105

# Reformatted with bars between the fields: entries from further up
row | Structure (SMILES) | Prob-Naive
4 | c1ccc2c(CCNc3ccc(Nc4ccncc4)cc3)c[nH]c2c1 | 0.0042
9 | C[C@@H]1O[C@H](O[C@H]2[C@H](O)[C@@H](O)[C@@H](O[C@H]3[C@H](O)[C@@H](O)[C@H](O)O[C@H]3CO)O[C@H]2CO)[C@H](O)[C@@H](O)[C@@H]1N[C@H]1C=C(CO)[C@@H](O)[C@H](O)[C@@H]1O [Acarbose] | -0.49
11 | O=c1c2ccccc2oc2ccccc12 [Xanthone] | -3.13
19 | C[C@@H]1C[C@H]2[C@@H]3CCC4=CC(=O)C=C[C@]4(C)[C@]3(Cl)[C@H](O)C[C@]2(C)[C@]1(OC(=O)c1ccco1)C(=O)CCl [Mometasone furoate] | 0.0956

# The list continues:

row,Structure (SMILES),Prob-Naive
1,Cc1nc2ccc(CN(C)c3ccc(C(=O)N[C@@H](CCC(=O)O)C(=O)O)s3)cc2c(=O)[nH]1 [Raltitrexed],0.0184
2,CN(C)CCCOc1nn(Cc2ccccc2)c2ccccc12.Cl [Benzydamine HCl],0.4
3,CN(C)c1ccc(C(=O)NCCCCCCC(=O)NO)cc1,0.587
4,Cc1cc(O)c2c(c1)C(=O)c1cccc(O)c1C2=O [Chrysophanic Acid],-0.13
5,CC(/C=C/C(=O)NO)=C\[C@@H](C)C(=O)c1ccc(N(C)C)cc1 [Trichostatin A (TSA)],0.489
6,CCCCC1C(=O)N(c2ccccc2)N(c2ccccc2)C1=O [Phenylbutazone],-0.0365
7,CNC[C@H](O)c1cccc(O)c1.Cl [Phenylephrine HCl],0.028
8,Nc1nc(NCCNc2ncc(-n3ccnc3)c(-c3ccc(Cl)cc3Cl)n2)ccc1[N+](=O)[O-],-0.13
9,Cc1cc(Nc2cc(N3CCN(C)CC3)nc(/C=C/c3ccccc3)n2)n[nH]1,0.173
10,COc1ccccc1Oc1c(NS(=O)(=O)c2ccc(C(C)(C)C)cc2)nc(-c2ncccn2)nc1OCCO.O [Bosentan Hydrate],0.389
11,Cc1cc(C)c(CNC(=O)c2cc(-c3ccc(CN4CCOCC4)cc3)cc3c2cnn3C2CCCC2)c(=O)[nH]1,0
12,NC(=S)NN=Cc1ncccc1N [Triapine],0.0243
13,NC(=O)c1noc([C@H](CCCC2CCCCC2)CC(=O)NO)n1,-0.487
14,CCC(NC(C)C)C(O)c1ccc(O)c(O)c1.CS(=O)(=O)O (centres undefined) [Isoetharine Mesylate],-0.381
15,Cc1[nH]c(/C=C2\C(=O)Nc3ccc(S(=O)(=O)Cc4c(Cl)cccc4Cl)cc32)c(C)c1C(=O)N1CCC[C@@H]1CN1CCCC1,0.437
16,CN(C)c1ccccc1CN1CCCN(Cc2ccccc2N(C)C)C1c1ccncc1,0.511
17,NCCCC[C@H](N[C@@H](CCc1ccccc1)C(=O)O)C(=O)N1CCC[C@H]1C(=O)O [Lisinopril (Zestril)],-0.618
18,COc1ccccc1N1CCN(CC(O)COc2cccc3ccccc23)CC1 (centres undefined) [Naftopidil],-0.296
19,CC(=O)OCC(=O)[C@]12N=C(C)O[C@@H]1C[C@H]1[C@@H]3CCC4=CC(=O)C=C[C@]4(C)[C@@H]3[C@H](O)C[C@@]12C [Deflazacort],0.184
20,NC1=N[C@@]2(c3cc(NC(=O)c4ccc(F)cn4)ccc3F)COC[C@@H]2CS1,-0.385
